From the supplement of paper PMC12067093, “Discovery and optimisation of a covalent ligand for TRIM25 and its application to targeted protein ubiquitination” (Chemical Science, 2025) come the findings set out here.

Protein sequences, listed by entry. Tags and fused reporters are not part of them. Lines headed by an entry give the natural chain unless they say otherwise; changes in a name come on top.
UniProt Q32MZ4: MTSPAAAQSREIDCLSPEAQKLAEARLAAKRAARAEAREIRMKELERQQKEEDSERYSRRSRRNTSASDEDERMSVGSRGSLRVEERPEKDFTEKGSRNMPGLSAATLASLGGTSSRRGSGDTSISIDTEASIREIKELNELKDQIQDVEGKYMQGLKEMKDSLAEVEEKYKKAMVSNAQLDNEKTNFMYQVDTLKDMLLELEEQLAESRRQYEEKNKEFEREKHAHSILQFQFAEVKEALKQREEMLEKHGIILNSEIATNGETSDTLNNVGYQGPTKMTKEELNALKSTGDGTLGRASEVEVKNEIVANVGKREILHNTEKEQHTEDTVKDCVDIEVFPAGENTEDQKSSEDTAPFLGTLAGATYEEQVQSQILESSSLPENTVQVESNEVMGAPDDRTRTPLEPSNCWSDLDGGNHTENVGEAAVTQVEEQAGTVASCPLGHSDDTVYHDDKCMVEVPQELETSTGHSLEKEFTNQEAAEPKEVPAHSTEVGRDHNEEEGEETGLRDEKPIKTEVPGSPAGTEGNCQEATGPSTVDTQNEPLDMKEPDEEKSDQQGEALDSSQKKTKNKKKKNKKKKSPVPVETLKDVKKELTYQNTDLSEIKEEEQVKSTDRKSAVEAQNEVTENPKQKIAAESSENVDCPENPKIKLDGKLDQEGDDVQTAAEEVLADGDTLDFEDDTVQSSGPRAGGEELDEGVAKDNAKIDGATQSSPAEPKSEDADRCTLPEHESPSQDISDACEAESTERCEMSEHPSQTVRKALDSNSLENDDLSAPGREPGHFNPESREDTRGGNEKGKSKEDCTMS
UniProt Q15345: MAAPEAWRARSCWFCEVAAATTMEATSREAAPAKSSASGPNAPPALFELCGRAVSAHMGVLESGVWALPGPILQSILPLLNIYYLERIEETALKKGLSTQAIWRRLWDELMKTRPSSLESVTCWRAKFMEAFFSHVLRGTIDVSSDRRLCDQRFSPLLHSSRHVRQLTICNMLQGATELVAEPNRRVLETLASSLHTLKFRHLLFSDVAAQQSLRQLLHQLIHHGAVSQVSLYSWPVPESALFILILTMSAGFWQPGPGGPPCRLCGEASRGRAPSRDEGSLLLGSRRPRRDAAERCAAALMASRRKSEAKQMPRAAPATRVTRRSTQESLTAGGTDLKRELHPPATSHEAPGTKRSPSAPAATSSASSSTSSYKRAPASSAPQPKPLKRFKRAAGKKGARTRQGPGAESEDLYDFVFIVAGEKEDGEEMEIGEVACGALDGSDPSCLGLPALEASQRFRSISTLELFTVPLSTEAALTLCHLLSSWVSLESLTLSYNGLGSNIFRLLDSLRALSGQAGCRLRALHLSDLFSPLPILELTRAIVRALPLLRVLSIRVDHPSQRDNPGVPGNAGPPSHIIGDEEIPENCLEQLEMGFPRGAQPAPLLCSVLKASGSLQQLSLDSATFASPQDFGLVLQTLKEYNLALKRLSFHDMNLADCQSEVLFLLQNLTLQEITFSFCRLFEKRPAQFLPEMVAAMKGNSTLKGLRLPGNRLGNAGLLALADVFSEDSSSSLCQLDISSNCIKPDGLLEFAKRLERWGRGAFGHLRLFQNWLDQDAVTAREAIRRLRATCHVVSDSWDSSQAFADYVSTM
UniProt Q8NHL6, whole entry: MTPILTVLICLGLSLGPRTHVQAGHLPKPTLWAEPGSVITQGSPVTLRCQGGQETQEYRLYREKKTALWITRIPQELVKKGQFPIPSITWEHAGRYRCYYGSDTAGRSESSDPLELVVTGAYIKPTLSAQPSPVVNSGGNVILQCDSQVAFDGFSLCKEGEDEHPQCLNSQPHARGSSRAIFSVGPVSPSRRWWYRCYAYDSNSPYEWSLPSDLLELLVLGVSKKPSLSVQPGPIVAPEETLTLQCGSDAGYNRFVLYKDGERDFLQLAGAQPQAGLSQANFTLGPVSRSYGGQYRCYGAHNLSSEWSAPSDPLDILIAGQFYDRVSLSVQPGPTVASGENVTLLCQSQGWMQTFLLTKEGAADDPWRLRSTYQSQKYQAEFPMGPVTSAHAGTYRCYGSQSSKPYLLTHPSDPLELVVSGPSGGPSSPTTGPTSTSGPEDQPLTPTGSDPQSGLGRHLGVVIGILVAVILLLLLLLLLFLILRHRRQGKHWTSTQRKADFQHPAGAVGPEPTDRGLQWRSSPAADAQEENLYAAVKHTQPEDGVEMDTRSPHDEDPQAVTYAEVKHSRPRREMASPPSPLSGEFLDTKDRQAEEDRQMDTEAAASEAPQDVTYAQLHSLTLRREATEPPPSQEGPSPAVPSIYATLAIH
UniProt Q96II8: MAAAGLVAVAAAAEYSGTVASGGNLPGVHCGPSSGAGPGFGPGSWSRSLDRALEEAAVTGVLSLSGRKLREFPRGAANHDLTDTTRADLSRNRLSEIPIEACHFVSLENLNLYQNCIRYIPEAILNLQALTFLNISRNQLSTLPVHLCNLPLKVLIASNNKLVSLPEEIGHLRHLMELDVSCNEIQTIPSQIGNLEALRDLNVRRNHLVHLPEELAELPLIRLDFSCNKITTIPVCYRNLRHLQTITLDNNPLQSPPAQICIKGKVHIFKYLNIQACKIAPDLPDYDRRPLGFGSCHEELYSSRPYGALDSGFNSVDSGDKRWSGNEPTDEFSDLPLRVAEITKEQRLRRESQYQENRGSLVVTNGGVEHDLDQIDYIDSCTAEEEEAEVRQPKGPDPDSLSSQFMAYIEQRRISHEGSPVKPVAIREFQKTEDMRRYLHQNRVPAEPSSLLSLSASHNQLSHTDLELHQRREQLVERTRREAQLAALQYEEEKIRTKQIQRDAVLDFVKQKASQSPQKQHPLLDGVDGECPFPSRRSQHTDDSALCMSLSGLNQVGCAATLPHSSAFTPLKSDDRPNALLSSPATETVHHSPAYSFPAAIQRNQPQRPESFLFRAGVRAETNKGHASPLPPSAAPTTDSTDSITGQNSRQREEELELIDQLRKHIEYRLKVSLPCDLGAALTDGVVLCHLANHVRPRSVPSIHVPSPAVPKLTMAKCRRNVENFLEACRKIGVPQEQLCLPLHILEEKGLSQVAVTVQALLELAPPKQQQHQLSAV
UniProt Q96GY3: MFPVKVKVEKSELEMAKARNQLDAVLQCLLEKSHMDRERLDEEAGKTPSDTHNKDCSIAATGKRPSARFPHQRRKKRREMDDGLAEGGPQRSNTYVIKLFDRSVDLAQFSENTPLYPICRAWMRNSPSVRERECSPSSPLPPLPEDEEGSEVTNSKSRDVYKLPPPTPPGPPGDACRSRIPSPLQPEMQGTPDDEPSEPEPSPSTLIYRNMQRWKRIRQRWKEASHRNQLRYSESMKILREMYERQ
UniProt O60711: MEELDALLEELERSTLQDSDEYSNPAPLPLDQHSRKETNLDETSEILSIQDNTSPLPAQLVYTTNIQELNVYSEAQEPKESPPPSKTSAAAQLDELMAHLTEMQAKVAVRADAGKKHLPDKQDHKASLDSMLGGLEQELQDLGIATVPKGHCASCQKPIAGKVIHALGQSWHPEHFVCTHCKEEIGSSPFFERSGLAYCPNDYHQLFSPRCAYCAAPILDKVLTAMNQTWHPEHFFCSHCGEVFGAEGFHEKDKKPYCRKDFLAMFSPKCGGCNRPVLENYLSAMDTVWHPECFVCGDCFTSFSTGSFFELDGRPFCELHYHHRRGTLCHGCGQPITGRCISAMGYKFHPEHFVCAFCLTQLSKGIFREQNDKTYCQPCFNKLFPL
UniProt Q86WU2: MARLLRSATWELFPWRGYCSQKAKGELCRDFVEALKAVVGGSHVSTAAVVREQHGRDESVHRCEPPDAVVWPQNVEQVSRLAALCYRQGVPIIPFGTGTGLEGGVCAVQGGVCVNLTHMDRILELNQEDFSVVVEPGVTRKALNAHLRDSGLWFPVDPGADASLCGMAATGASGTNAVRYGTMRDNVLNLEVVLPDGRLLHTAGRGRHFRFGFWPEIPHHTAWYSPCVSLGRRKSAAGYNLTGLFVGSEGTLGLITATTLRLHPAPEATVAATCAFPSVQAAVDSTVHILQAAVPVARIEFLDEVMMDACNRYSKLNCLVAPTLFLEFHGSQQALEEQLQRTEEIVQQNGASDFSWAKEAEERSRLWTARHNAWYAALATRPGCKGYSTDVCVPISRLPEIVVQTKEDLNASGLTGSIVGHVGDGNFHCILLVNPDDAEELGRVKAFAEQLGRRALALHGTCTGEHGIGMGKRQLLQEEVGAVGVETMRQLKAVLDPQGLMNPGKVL
UniProt Q6MZP7: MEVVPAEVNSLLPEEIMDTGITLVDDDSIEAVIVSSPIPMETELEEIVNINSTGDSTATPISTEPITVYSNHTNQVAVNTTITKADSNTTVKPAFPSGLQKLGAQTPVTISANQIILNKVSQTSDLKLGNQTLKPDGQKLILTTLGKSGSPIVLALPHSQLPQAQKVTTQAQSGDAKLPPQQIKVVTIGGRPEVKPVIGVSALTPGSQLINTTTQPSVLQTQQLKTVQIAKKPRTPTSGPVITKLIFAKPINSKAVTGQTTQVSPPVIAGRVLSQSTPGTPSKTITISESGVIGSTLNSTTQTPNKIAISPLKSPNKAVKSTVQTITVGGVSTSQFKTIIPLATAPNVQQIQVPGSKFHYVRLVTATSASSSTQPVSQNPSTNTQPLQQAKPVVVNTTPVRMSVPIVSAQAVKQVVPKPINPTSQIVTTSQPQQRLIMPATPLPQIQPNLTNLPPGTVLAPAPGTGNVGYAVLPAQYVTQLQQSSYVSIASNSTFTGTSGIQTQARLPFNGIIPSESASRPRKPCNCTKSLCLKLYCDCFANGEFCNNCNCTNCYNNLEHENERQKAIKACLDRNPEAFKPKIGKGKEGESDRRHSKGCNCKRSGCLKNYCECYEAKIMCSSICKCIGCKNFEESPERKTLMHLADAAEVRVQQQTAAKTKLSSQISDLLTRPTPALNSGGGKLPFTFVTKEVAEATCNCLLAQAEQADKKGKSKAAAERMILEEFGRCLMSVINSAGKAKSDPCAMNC
UniProt O75427: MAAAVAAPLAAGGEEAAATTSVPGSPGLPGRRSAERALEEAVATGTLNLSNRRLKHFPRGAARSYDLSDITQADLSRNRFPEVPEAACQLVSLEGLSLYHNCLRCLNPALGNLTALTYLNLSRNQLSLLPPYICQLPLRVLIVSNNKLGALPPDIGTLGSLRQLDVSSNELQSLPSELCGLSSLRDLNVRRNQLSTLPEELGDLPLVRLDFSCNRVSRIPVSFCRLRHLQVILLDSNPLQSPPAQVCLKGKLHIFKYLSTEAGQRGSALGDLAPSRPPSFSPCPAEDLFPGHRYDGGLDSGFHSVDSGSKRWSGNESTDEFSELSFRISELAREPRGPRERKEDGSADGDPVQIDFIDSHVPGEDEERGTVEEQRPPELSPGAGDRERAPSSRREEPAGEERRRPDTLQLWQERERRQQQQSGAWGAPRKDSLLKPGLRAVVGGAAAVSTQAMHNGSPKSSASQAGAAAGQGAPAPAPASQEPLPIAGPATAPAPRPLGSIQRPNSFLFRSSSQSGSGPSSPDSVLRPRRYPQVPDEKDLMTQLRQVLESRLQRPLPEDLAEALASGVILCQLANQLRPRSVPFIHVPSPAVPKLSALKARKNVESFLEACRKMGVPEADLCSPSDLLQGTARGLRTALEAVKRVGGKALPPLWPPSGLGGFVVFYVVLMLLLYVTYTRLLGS
UniProt P49917: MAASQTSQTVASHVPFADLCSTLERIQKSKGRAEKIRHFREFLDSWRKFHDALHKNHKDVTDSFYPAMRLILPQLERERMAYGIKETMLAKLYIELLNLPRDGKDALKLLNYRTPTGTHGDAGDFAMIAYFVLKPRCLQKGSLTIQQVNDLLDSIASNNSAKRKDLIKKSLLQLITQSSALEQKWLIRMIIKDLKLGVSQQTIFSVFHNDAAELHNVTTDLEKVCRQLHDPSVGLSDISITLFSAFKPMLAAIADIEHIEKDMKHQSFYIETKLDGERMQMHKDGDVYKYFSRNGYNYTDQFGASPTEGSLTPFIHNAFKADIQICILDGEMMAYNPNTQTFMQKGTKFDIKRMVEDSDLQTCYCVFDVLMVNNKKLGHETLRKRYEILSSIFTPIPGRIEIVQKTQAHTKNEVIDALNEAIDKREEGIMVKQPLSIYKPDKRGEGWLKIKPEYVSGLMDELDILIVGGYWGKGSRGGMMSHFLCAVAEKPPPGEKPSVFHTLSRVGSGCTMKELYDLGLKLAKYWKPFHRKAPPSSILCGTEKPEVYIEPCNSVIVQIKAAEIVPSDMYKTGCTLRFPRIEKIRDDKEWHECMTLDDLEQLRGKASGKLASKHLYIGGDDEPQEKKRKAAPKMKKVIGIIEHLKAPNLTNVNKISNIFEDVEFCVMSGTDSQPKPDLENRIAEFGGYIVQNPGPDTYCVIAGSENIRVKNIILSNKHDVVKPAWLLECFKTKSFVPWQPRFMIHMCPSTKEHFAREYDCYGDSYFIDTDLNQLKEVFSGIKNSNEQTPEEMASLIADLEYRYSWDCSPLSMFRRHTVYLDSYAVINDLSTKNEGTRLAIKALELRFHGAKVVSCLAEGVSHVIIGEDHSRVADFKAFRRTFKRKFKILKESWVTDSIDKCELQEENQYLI

The other results are listed elsewhere or left out.
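Further: competitive chemoproteomic profiling in live THP-1 cells with an iodoacetamide desthiobiotin (IA-DTB) probe, comparing probe-labelled peptide intensities in compound-treated cells against DMSO-treated controls.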

Compound in the first experiment: CC1Cc2ccccc2N1C(=O)C1CCCN(C1)C(=O)CCl (mixture of isomers) [TRIM25 ligand 11 (diastereomer mixture)]
The experiment in a line: probe-labelled cysteine peptide fold change vs DMSO (competition) (log2 fold change); higher = less target engagement (more negative = stronger competition). The settings on record: 10 µM; THP-1; incubation time: 4 h.
For “LRRFIP1_Q32MZ4_14_EIDCLSPEAQK (UniProt Q32MZ4)”, the “probe-labelled cysteine peptide fold change” value is -0.154. As to “LRRC41_Q15345_170_QLTICNMLQGATELVAEPNRR (UniProt Q15345)”, the “probe-labelled cysteine peptide fold change” value was -0.00572. Regarding “LILRB1_Q8NHL6_49_CQGGQETQEYR (UniProt Q8NHL6)”, the “probe-labelled cysteine peptide fold change” value is 0.126. With “LRCH3_Q96II8_148_NQLSTLPVHLCNLPLK (UniProt Q96II8)”, the “probe-labelled cysteine peptide fold change” value is -0.0579.

As to “LIN37_Q96GY3_56_DCSIAATGK (UniProt Q96GY3)”, the “probe-labelled cysteine peptide fold change” value is -0.0274.

The same experiment, now with this note: 50 µM; THP-1; incubation time: 4 h.
Consider “LMO7_Q8WWI1_98_ASLENGVLLCDLINK (UniProt Q8WWI1)”, for which the “probe-labelled cysteine peptide fold change” value is -0.154.

With “LGALS9_O00182_74_FEDGGYVVCNTR (UniProt O00182)”, the “probe-labelled cysteine peptide fold change” value was determined as 0.199. Regarding “LRR1_Q96L50_5_LHCEVEVISR (UniProt Q96L50)”, the “probe-labelled cysteine peptide fold change” value came out at 0.204. With “LPCAT1_Q8NF37_216_TCLITFKPGAFIPGAPVQPVVLR (UniProt Q8NF37)”, the “probe-labelled cysteine peptide fold change” value is 0.0543. On to LSM4_Q9Y4Z0_45_EVICTSR (UniProt Q9Y4Z0), for which the “probe-labelled cysteine peptide fold change” value was -0.127. Turning to “LPXN_O60711_152_GHCASCQKPIAGK (UniProt O60711)”, the “probe-labelled cysteine peptide fold change” value is -0.0669. On to “LPXN_O60711_178+181_VIHALGQSWHPEHFVCTHCK (UniProt O60711)”, for which the “probe-labelled cysteine peptide fold change” value was -0.186. As to “LONP1_P36776_909_AGVTCIVLPAENKK (UniProt P36776)”, the “probe-labelled cysteine peptide fold change” value was -0.00337.

Consider “LRCH3_Q96II8_689_VSLPCDLGAALTDGVVLCHLANHVRPR (UniProt Q96II8)”, for which the “probe-labelled cysteine peptide fold change” value stood at 0.0314. Turning to “LPXN_O60711_152+155_GHCASCQKPIAGK (UniProt O60711)”, the “probe-labelled cysteine peptide fold change” value was -0.355. Turning to “LRRC40_Q9H9A6_23_DCGTSVPQGLLK (UniProt Q9H9A6)”, the “probe-labelled cysteine peptide fold change” value is -0.167. With “LRPPRC_P42704_1043_DILIACR (UniProt P42704)”, the “probe-labelled cysteine peptide fold change” value was 0.0957. For the target “LRPPRC_P42704_721+722_AKYESDMVTGGYAALINLCCR (UniProt P42704)”, the “probe-labelled cysteine peptide fold change” value is -0.101. On the same count and under the same terms, in the case of “LMNB1_P20700_110_CKAEHDQLLLNYAK (UniProt P20700)” it was -0.0591; in that of “LDHD_Q86WU2_462_ALALHGTCTGEHGIGMGKR (UniProt Q86WU2)”, -0.239. With “LSP1_P33241_109_QQHEGAQGALDSGEPPQCR (UniProt P33241)”, the “probe-labelled cysteine peptide fold change” value is -0.0324. “LRRC58_Q96CX6_296_YLGSASNCPNPK (UniProt Q96CX6)”: the “probe-labelled cysteine peptide fold change” value is -0.204. For the target “LIG1_P18858_280_NNYHPVEDACWKPGQK (UniProt P18858)”, the “probe-labelled cysteine peptide fold change” value was -0.159.

Regarding “LRPPRC_P42704_848_GDLSTALEVAIDCYEK (UniProt P42704)”, the “probe-labelled cysteine peptide fold change” value came to 0.0882.

As for “LIMS1_P48059_164_NDPYHPDHFNCANCGK (UniProt P48059)”, the “probe-labelled cysteine peptide fold change” value is -0.0626. Take “LRRFIP1_Q32MZ4_726+742_CTLPEHESPSQDISDACEAESTER (UniProt Q32MZ4)”: the “probe-labelled cysteine peptide fold change” value is -0.0779. Turning to “LRMP_Q12912_355_SFNPLEDDDDCQIK (UniProt Q12912)”, the “probe-labelled cysteine peptide fold change” value was -0.168. “LIN54_Q6MZP7_729_CLMSVINSAGK (UniProt Q6MZP7)”: the “probe-labelled cysteine peptide fold change” value came to 0.081.

As for “LRCH3_Q96II8_182_HLMELDVSCNEIQTIPSQIGNLEALR (UniProt Q96II8)”, the “probe-labelled cysteine peptide fold change” value was -0.184.

Turning to “LRCH4_O75427_213_LDFSCNR (UniProt O75427)”, the “probe-labelled cysteine peptide fold change” value was 0.116. For the target “LRRC14_Q15048_71_ELVHTWPFPLLSFQQLLQECAHCSR (UniProt Q15048)”, the “probe-labelled cysteine peptide fold change” value was determined as 0.155. Consider “LRCH4_O75427_88_NRFPEVPEAACQLVSLEGLSLYHNCLR (UniProt O75427)”, for which the “probe-labelled cysteine peptide fold change” value was -0.15. Take “LIG4_P49917_855_VVSCLAEGVSHVIIGEDHSR (UniProt P49917)”: the “probe-labelled cysteine peptide fold change” value was -0.031. Same read-out and setting: the figure for “LSS_P48449_700_SCAISYTSYR (UniProt P48449)” is -0.0794. On to “LGALS9_O00182_102_GMPFDLCFLVQSSDFK (UniProt O00182)”, for which the “probe-labelled cysteine peptide fold change” value was found to be 0.0536. The same measure, in the same setting: the figure for “LIG4_P49917_747_FMIHMCPSTK (UniProt P49917)” is -0.213. For “LRCH4_O75427_134_NQLSLLPPYICQLPLR (UniProt O75427)”, the “probe-labelled cysteine peptide fold change” value amounted to 0.234. Regarding “LRRFIP1_Q32MZ4_14_EIDCLSPEAQK (UniProt Q32MZ4)”, the “probe-labelled cysteine peptide fold change” value was -0.205. Same read-out and setting: in the case of “LRRC41_Q15345_170_QLTICNMLQGATELVAEPNRR (UniProt Q15345)” it was -0.064; in that of “LILRB1_Q8NHL6_49_CQGGQETQEYR (UniProt Q8NHL6)”, 0.204; in that of “LRCH3_Q96II8_148_NQLSTLPVHLCNLPLK (UniProt Q96II8)”, 0.08. Still for that read-out and setting: the figure for “LIN37_Q96GY3_56_DCSIAATGK (UniProt Q96GY3)” is -0.192.
